Results published in US7018796B2, “Preincubation assay methods” (Shionogi & Co., Ltd., priority 2000, dated 2006).
Some entries share one result that the patent states for a list of compounds.

Chains of the proteins cited; added tags and fusions are not shown. Residues count along the entry.
UniProt P27958, 2421-3011: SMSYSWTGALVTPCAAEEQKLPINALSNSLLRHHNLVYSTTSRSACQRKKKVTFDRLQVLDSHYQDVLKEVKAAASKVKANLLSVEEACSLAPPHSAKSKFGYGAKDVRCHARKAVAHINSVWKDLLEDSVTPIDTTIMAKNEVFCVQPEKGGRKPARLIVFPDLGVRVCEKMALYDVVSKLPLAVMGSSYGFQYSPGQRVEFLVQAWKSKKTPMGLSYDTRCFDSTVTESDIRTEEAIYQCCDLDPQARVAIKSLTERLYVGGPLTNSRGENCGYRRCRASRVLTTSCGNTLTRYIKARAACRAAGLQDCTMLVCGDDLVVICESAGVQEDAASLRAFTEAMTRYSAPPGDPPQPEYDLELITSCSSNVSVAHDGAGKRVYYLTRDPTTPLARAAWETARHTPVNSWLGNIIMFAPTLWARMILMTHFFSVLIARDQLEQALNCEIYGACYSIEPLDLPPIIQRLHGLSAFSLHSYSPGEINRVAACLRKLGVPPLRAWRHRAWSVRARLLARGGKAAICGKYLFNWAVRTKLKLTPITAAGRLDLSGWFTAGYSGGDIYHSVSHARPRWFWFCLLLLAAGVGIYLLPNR

What follows are compounds tested against T1, HCV RNA-dependent RNA polymerase (Hepatitis C virus genotype 1a, UniProt P27958) (assay: Pre-incubation assay method with 3H-UTP (Example 1)). Conditions: same concentrations as.
T1 construct: HCV RNA-dependent RNA polymerase is encoded in the NS5B (nonstructural protein 5B) region of HCV; made in house; host or cells: insect cells or E. coli
Type: biochemical
Description: A HCV RNA-dependent RNA polymerase, template RNA, primer RNA and Mg ion (Mg^2+) are pre-incubated at approximately 25° C. for approximately 1 hour. After that, substrate RNA and a test substance are added to start an enzyme reaction and measure an enzyme activity. IC50 value can be calculated by comparing with an enzyme activity measured in the absence of a test substance as well as the above prior method. An inhibitor can be selected by comparing IC50. An example of a procedure of this method is shown in the later described Example 1.
A cDNA encoding HCV RNA-dependent RNA polymerase was made by use of HCV positive human plasma and HCV RNA-dependent RNA polymerase was expressed using the insect cells or the E. coli. HCV RNA-dependent RNA polymerase in the cell extract was purified by use of an anion exchange chromatography, a heparin affinity chromatography, a polyU affinity chromatography, a cation exchange chromatography and gel filtration chromatography. The purification was performed at 4° C. and Tris buffer (pH 7.5) containing ethylenediaminetetraacetic acid (1 mM), dithiothreitol (10 mM) and glycerol (20%) was used. The enzyme purified was stored at 4° C. until use for the assays.
• 1) The buffer I ^1) (10.5 μl) containing Tris-HCl (100 mM, pH 7.5), MgCl2 (25 mM), dithiothreitol (5 mM), KCl (125 mM) and ethylenediaminetetraacetic acid (5 mM) was transferred to a polypropylene tube and then poly(A)^2) solution (100 μg/ml, 10.5 μl), oligo(U)12 ^3) solution (1 μg/ml, 10.5 μl) and water (8 μl) were added into the tube and mixed. • 2) Next, HCV RNA-dependent RNA polymerase (10.5 μl) was added into the tube and pre-incubated at 25° C. for […]. • 3) The enzyme solution pre-incubated (50 μl) was added to a test compound (5.26 μl/well) dissolved with dimethyl sulfoxide or water in a well of a 96-wells microtiter plate. • 4) Additionally, the buffer II (10.6 μl) containing Tris-HCl (100 mM, pH 7.5), MgCl2 (25 mM), dithiothreitol (5 mM), KCl (125 mM), ethylenediaminetetraacetic acid (5 mM) and UTP • 4) (2.1 μM, 1 μCi ^3H-UTP), was mixed with water (39.4 μl). […]

SMILES	Enzyme inhibition rate in a pre-incubation assay method (FIG. 5)
CCCCC1=N/C(=C\c2ccccc2OCC(=O)O)C(=O)N1Cc1ccc(-c2ccccc2-c2nnn[nH]2)cc1 [Compound C]	under 15%
O=C1NC(=O)C(=Cc2ccc(OCCc3cccc4ccccc34)cc2)C(=O)N1 [Compound B]	under 15%
Cc1oc(-c2ccccc2)nc1CCOc1ccc(C=C2C(=O)NC(=O)NC2=O)cc1 [Compound A]	under 15%
